Measurements published in the supplement of paper PMC11732987, “Enantioselective OTUD7B fragment discovery through chemoproteomics screening and high-throughput optimisation” (Communications Chemistry, 2025).
This is one part of the list. The data scatter; read single values as rough.

Protein sequences, listed by entry. Tags and fused reporters are not part of them. Lines headed by an entry give the natural chain unless they say otherwise; changes in a name come on top. Residues count along the entry.
UniProt Q15942: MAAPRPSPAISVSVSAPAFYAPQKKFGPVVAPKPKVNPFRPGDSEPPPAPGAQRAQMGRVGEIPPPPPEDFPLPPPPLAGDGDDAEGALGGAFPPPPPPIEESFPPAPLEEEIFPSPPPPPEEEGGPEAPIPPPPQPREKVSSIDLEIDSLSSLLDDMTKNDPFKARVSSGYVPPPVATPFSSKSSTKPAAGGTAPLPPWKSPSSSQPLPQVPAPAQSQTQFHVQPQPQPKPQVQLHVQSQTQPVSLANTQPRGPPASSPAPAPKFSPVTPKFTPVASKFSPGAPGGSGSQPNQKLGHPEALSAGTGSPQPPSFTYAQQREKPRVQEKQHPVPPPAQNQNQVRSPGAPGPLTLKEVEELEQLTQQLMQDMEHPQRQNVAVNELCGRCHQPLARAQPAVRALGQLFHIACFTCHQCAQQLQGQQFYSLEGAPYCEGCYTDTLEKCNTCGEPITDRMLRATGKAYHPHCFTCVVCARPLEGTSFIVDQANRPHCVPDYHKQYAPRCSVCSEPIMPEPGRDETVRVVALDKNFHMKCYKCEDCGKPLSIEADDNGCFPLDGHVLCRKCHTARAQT
UniProt Q8TCF1: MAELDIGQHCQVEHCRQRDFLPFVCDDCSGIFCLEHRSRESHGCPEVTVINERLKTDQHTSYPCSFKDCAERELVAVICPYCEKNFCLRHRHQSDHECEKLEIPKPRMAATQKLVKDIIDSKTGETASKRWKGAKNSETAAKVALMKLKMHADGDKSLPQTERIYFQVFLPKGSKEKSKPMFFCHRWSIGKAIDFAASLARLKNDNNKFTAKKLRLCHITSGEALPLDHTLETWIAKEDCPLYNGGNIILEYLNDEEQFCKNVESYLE
UniProt A7E2V4, whole entry, looked up: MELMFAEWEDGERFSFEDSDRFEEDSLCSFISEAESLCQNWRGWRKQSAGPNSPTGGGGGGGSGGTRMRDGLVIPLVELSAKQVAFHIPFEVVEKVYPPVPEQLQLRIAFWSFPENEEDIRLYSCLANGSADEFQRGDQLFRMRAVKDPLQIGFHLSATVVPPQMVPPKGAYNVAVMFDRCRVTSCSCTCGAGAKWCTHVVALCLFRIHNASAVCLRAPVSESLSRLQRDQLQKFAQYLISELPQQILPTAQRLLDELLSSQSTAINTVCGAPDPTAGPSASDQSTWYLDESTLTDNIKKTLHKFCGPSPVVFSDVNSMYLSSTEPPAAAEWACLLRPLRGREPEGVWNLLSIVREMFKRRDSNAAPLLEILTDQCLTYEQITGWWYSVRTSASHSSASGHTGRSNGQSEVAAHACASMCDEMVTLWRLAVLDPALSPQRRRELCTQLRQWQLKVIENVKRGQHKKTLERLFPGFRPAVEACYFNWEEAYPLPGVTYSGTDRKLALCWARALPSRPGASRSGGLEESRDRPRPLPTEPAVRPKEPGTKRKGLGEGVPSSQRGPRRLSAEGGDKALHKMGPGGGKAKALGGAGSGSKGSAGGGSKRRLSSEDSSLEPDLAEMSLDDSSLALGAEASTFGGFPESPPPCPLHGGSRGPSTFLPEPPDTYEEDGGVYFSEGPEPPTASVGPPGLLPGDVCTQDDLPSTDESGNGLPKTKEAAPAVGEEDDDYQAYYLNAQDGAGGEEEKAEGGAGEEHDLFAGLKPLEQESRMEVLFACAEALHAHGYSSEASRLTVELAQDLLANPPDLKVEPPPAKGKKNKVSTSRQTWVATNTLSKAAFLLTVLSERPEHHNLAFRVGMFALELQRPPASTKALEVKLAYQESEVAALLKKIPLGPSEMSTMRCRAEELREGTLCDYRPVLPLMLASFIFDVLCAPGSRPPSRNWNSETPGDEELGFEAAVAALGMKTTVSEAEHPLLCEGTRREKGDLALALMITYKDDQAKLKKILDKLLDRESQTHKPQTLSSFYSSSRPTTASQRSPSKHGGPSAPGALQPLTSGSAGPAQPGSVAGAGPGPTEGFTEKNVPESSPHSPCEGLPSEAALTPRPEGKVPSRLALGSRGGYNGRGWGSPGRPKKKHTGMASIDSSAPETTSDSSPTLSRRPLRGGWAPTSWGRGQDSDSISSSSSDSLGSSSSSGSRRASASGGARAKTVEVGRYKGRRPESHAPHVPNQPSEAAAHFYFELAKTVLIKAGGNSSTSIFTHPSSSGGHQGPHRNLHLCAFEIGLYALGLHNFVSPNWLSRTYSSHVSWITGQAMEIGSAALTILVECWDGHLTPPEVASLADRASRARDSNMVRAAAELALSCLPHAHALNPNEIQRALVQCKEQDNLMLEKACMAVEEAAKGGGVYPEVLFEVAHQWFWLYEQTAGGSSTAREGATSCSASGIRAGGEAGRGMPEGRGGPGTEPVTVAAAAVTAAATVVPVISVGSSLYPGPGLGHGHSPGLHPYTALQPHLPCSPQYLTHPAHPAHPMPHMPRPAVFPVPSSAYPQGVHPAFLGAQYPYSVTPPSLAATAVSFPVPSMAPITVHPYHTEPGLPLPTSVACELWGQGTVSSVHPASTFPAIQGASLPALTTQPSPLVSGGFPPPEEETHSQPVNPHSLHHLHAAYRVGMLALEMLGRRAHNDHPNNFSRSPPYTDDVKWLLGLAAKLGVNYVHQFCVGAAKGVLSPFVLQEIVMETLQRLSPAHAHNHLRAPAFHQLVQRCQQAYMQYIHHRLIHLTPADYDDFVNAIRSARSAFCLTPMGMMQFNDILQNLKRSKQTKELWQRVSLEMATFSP
UniProt Q9UHR6: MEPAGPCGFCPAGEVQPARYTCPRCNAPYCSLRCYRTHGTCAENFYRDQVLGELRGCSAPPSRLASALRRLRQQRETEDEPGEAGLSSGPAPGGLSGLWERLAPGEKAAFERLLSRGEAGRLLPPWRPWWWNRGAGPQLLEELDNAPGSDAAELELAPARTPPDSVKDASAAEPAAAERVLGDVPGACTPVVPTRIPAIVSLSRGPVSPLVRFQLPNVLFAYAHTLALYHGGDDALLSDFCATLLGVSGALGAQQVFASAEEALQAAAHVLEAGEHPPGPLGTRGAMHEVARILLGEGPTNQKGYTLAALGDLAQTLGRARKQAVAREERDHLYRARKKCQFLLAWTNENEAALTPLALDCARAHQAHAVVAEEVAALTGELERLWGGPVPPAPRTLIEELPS
UniProt Q96K58, 40-65: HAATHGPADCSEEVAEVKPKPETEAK
UniProt Q9HBF4, 210-230: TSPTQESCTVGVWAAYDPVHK
UniProt O43149: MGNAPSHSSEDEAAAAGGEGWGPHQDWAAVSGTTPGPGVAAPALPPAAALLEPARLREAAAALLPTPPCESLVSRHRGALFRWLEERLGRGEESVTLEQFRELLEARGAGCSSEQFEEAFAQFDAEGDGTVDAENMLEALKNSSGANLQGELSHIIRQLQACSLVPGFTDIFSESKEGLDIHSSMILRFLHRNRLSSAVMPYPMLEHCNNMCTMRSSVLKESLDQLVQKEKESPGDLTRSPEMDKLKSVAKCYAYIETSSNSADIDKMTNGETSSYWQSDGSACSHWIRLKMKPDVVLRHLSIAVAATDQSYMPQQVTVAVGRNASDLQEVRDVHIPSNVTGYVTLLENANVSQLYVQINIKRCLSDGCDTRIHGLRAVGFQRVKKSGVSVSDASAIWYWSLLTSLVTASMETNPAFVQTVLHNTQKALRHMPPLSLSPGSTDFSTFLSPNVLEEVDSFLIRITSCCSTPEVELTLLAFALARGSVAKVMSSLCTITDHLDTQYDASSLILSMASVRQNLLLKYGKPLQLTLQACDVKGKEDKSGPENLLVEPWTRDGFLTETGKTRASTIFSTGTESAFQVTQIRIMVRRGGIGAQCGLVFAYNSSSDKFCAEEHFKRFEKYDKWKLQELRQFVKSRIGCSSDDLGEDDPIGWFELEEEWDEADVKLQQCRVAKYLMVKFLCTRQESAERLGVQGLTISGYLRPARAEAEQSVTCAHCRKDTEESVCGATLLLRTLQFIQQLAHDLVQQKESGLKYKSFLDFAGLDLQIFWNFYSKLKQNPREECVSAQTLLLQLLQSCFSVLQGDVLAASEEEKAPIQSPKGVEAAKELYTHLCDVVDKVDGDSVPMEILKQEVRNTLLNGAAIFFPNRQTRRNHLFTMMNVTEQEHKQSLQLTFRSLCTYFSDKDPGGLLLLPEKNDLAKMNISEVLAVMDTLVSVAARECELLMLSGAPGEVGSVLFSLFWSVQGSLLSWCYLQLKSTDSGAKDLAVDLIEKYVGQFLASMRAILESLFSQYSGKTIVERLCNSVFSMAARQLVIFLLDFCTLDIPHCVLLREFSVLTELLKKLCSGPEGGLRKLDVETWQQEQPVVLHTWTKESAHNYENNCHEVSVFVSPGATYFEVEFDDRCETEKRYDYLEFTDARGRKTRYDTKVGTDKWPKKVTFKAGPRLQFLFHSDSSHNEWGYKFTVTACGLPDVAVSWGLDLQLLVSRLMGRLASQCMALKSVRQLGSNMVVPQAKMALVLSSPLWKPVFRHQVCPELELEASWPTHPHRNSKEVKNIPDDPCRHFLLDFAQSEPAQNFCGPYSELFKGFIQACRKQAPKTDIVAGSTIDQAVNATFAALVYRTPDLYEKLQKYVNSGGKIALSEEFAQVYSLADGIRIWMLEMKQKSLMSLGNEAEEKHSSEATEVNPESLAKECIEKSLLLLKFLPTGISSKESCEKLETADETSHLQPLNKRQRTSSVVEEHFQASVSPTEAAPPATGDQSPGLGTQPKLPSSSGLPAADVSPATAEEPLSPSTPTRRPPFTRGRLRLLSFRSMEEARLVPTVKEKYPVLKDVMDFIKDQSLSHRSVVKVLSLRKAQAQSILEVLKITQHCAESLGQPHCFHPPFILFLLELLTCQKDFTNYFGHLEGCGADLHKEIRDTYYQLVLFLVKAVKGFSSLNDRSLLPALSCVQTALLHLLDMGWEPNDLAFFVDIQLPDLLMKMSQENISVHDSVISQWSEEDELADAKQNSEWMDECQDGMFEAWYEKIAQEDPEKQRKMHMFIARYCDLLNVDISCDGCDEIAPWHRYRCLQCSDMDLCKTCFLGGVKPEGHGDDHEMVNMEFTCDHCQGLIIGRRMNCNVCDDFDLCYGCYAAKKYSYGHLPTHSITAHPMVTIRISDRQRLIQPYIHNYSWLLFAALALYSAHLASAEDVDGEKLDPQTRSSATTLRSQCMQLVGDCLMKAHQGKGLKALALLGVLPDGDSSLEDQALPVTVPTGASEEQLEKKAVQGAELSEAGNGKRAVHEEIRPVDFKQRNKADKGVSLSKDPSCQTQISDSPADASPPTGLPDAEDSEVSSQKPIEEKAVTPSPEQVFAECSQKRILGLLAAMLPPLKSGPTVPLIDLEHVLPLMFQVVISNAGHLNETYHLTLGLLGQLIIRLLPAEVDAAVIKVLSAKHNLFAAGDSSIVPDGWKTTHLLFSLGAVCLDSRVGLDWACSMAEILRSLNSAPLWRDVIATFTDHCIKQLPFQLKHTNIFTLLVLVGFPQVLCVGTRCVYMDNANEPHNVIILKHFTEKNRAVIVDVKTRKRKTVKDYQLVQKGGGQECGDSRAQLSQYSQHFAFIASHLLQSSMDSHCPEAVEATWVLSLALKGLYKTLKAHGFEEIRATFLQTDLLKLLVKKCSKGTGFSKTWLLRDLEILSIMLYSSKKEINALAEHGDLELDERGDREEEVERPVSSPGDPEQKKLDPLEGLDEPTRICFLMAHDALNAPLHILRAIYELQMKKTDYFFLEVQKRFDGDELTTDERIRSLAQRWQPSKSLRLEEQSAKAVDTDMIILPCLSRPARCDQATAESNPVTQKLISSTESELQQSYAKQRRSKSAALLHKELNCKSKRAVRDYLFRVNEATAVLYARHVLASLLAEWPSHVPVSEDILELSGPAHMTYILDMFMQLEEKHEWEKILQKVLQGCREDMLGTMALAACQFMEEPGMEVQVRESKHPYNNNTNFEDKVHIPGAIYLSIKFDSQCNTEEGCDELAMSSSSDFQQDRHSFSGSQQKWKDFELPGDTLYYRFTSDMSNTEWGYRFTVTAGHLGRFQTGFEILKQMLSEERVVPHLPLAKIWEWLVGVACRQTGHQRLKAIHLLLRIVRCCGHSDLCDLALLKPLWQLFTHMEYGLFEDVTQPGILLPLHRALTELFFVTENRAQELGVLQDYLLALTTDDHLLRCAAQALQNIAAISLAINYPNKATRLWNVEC
UniProt Q9C0D3, 38-57: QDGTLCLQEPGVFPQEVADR
UniProt Q9NUD5: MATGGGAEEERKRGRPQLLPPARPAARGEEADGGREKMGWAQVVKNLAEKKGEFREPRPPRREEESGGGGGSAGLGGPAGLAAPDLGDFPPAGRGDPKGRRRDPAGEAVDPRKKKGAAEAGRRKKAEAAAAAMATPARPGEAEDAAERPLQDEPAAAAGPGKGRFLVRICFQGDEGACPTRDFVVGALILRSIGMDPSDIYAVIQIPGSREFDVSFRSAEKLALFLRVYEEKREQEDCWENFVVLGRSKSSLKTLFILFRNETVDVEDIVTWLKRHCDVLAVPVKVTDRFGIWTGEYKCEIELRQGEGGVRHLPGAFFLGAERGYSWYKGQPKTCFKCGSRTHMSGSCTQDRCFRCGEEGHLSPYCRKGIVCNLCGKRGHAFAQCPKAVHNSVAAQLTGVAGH
UniProt Q9UGR2, 142-162: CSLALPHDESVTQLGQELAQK
UniProt Q9H2Y7, 1201-1225: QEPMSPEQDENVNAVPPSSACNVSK
UniProt Q9ULU4, 1061-1084: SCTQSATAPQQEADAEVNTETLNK

How the values were obtained:
[1] = compound: ClCC(=O)N[C@@H]1CCCc2ccccc12; experiment: log2 mean competition ratio of IA-DTB cysteine labelling (DMSO/compound) (log2 ratio); higher = stronger cysteine engagement by compound; settings: treatment time: 4 h, cell line lysate: HEK293T
Protocol: (§1)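 IA-DTB competitive cysteine chemoproteomics in HEK293T RIPA lysate. Lysates were treated with compound 29 or 30 at 50 or 200 µM for 4 h, then IA-DTB (500 µM, 1 h), trypsin-digested, NeutrAvidin-enriched and analysed by diaPASEF. Competition ratio = intensity DMSO / intensity compound (n=4 treated, n=64 DMSO); binding: mean log2 CR ≥ 1 and p ≤ 0.05 plus QC filters. Target is the cysteine site.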

[2] = compound: ClCC(=O)N[C@H]1CCCc2ccccc12; experiment: as above; settings: treatment time: 4 h, cell line lysate: HEK293T
Protocol: as §1

Target | log2 mean competition ratio ([1]; 50 µM) | log2 mean competition ratio ([1]; 200 µM) | log2 mean competition ratio ([2]; 50 µM) | log2 mean competition ratio ([2]; 200 µM)
ZDHHC13 C10 (UniProt Q8IUH4) | -0.257 | 0.233 | -0.183 | 0.482
ZFR C844 (UniProt Q96KR1) | -0.0193 | -0.182 | -0.125 | 0.178
ZNF24 C189 (UniProt P17028) | -0.0729 | 0.0428 | -0.169 | 0.00621
ZUP1 C230 (UniProt Q96AP4) | -0.0259 | -0.0588 | -0.362 | -0.0955
ZYX C384 (UniProt Q15942) | -0.205 | 0.381 | 0.378 | 0.452
ZNF292 C1050 (UniProt O60281) | -0.134 | -0.00753 | -0.0778 | -0.123
ZNF317 C127 | 0.126 | 0.284 | -0.142 | -0.00881
ZNF518A C516 | 0.23 | -0.0902 | -0.47 | -0.048
ZC3H7A C98 (UniProt Q8IWR0) | 0.685 | 0.44 | 0.331 | 0.329
ZFAND1 C184 (UniProt Q8TCF1) | 0.457 | -0.0404 | 0.299 | -0.132
ZNF277 C21 (UniProt Q9NRM2) | -0.0246 | 0.196 | -0.0964 | 0.353
ZSWIM9 C403 | -0.112 | 0.096 | 0.044 | 0.613
ZNF292 C215 (UniProt O60281) | -0.19 | 0.0716 | -0.558 | -0.171
ZNF512B C774 (UniProt Q96KM6) | 0.172 | -0.151 | 0.237 | -0.0789
ZSWIM8 C979 (UniProt A7E2V4) | 0.169 | -0.0912 | -0.29 | -0.185
ZFC3H1 C1816 (UniProt O60293) | -0.16 | -0.224 | -0.187 | -0.0634
ZNF451 C461 (UniProt Q9Y4E5) | -0.131 | -0.0675 | -0.329 | -0.0598
ZNF264 C84 | -0.299 | 0.211 | -0.29 | 0.015
ZRANB2 C15 (UniProt O95218) | -0.0996 | 0.361 | 0.187 | 0.191
ZNF503 C219 | -0.0294 | 0.556 | 0.145 | 0.536
ZNHIT2 C188 (UniProt Q9UHR6) | -0.247 | -0.105 | -0.0402 | -0.0729
ZFYVE26 C66 (UniProt Q68DK2) | 0.0401 | 0.11 | -0.277 | 0.226
ZFYVE21 C88 (UniProt Q9BQ24) | 0.0618 | 0.28 | -0.322 | 0.219
ZNF668 C49 (UniProt Q96K58) | -0.0319 | -0.135 | 0.0293 | -0.303
ZFYVE1 C174 (UniProt Q9HBF4) | -0.239 | 0.0292 | -0.189 | -0.335

Target | log2 mean competition ratio ([1]; 50 µM) | log2 mean competition ratio ([1]; 200 µM) | log2 mean competition ratio ([2]; 50 µM) | log2 mean competition ratio ([2]; 200 µM)
ZZEF1 C69 (UniProt O43149) | -0.111 | -0.0398 | -0.0444 | -0.0339
ZSCAN21 C241 (UniProt Q9Y5A6) | 0.242 | -0.0432 | 0.0221 | 0.11
ZNF35 C129 | -0.0983 | 0.118 | -0.468 | 0.25
ZNF280B C5 (UniProt Q86YH2) | -0.302 | 0.109 | -0.341 | -0.175
ZDHHC6 C343 (UniProt Q9H6R6) | 0.0478 | -0.201 | 0.0317 | -0.113
ZCCHC2 C305 | 0.0567 | 0.209 | 0.495 | -0.162
ZHX3 C11 (UniProt Q9H4I2) | 0.0535 | -0.556 | 0.76 | -0.317
ZDBF2 C2333 | 0.1 | 0.507 | 0.205 | 0.433
ZFR C525 (UniProt Q96KR1) | -0.0815 | -0.13 | -0.0284 | -0.102
ZYG11B C43 (UniProt Q9C0D3) | -0.459 | 0.521 | -0.372 | 0.206
ZMAT5 C57 (UniProt Q9UDW3) | -0.0143 | 0.567 | -0.715 | 0.21
ZZEF1 C728 (UniProt O43149) | 0.122 | 0.545 | 0.14 | 0.271
ZCCHC3 C348 (UniProt Q9NUD5) | 0.151 | -0.161 | 0.204 | 0.158
ZNF24 C233 (UniProt P17028) | 0.145 | 0.0684 | 0.00872 | 0.121
ZZEF1 C2084 (UniProt O43149) | -0.0594 | 0.203 | 0.13 | 0.0648
ZNF684 C49 | 0.00173 | 0.0667 | 0.00461 | 0.0694
ZFHX4 C317 (UniProt Q86UP3) | 0.0117 | 0.0968 | -0.0429 | -0.0172
ZNF761 C24 | -0.203 | -0.0346 | 0.0103 | 0.106
ZC3H7B C142 (UniProt Q9UGR2) | 0.0931 | 0.457 | -0.0603 | 0.0998
ZNHIT2 C41 (UniProt Q9UHR6) | 0.0103 | 0.405 | 0.159 | 0.0351
ZFYVE1 C217 (UniProt Q9HBF4) | -0.333 | -0.109 | 0.194 | -0.233
ZNF318 C2188 (UniProt Q5VUA4) | -0.139 | 0.399 | -0.00826 | 0.351
ZMYM4 C1232 (UniProt Q5VZL5) | 0.0258 | 0.138 | -0.108 | -0.115
ZNF318 C645 (UniProt Q5VUA4) | 0.233 | 0.194 | 0.296 | -0.245
ZNF106 C1069 (UniProt Q9H2Y7) | 0.248 | 0.115 | 0.422 | 0.0818

Taken from above (two entries):
Target | log2 mean competition ratio ([1]; 50 µM) | log2 mean competition ratio ([1]; 200 µM) | log2 mean competition ratio ([2]; 50 µM) | log2 mean competition ratio ([2]; 200 µM)
ZFAND1 C184 (UniProt Q8TCF1) | 0.457 | -0.0404 | 0.299 | -0.132
ZNF277 C21 (UniProt Q9NRM2) | -0.0246 | 0.196 | -0.0964 | 0.353

Additional results

Target | log2 mean competition ratio ([1]; 50 µM) | log2 mean competition ratio ([1]; 200 µM) | log2 mean competition ratio ([2]; 50 µM) | log2 mean competition ratio ([2]; 200 µM)
ZNF35 C156 | 0.239 | -0.0906 | 0.0533 | 0.128
ZFYVE26 C2428 (UniProt Q68DK2) | -0.127 | -0.0195 | 0.101 | 0.00642
ZYX C387 (UniProt Q15942) | 0.301 | -0.405 | 0.414 | -0.345
ZWILCH C7 (UniProt Q9H900) | 0.134 | -0.121 | -0.182 | -0.202
ZDHHC16 C157 (UniProt Q969W1) | -0.119 | -0.274 | -0.205 | 0.177
ZNRD2 C152 | 0.1 | -0.122 | 1.03 | -0.0942
ZNF669 C378 (UniProt Q96BR6) | -0.406 | -0.198 | -0.327 | 0.0832
ZNF616 C174 | 0.0592 | 0.405 | -0.167 | -0.135
ZHX3 C587 (UniProt Q9H4I2) | 0.113 | -0.0906 | -0.167 | -0.166
ZC3HAV1 C96 (UniProt Q7Z2W4) | -0.105 | -0.0403 | -0.25 | 0.126
ZC3HC1 C208 (UniProt Q86WB0) | 0.185 | -0.0421 | 0.183 | 0.208
ZNF106 C457 (UniProt Q9H2Y7) | 0.061 | -0.0697 | 0.122 | -0.00951
ZFP36L1 C173 | -0.23 | 0.0226 | -0.265 | -0.271
ZFC3H1 C1068 (UniProt O60293) | -0.0431 | 0.0601 | -0.19 | 0.112
ZDHHC18 C156 (UniProt Q9NUE0) | -0.018 | 0.132 | -0.504 | 0.0281
ZMYM1 C532 (UniProt Q5SVZ6) | 0.154 | -0.174 | 0.0223 | -0.119
ZNF574 C656 (UniProt Q6ZN55) | 0.0346 | -0.102 | -0.213 | -0.0505
ZCCHC17 C146 (UniProt Q9NP64) | 0.16 | 0.315 | 0.201 | 0.174
ZNF616 C163 | -0.0501 | 0.0233 | -0.458 | 0.0618
ZNF8 C427 (UniProt P17098) | -0.0398 | 0.158 | 0.163 | -0.191
ZNF655 C189 (UniProt Q8N720) | -0.183 | 0.272 | -0.909 | -0.00026
ZFPL1 C230 (UniProt O95159) | -0.122 | -0.000237 | -0.476 | -0.123
ZSWIM8 C1441 (UniProt A7E2V4) | -0.00833 | 0.14 | 0.0178 | 0.0208
ZCCHC8 C262 (UniProt Q6NZY4) | -0.364 | -0.0121 | -0.356 | -0.047
ZSCAN26 C196 (UniProt Q16670) | -0.107 | 0.053 | -0.0884 | 0.164

Target | log2 mean competition ratio ([1]; 50 µM) | log2 mean competition ratio ([1]; 200 µM) | log2 mean competition ratio ([2]; 50 µM) | log2 mean competition ratio ([2]; 200 µM)
ZZEF1 C2312 (UniProt O43149) | -0.0776 | 0.0785 | -0.0539 | 0.129
ZSWIM8 C445 (UniProt A7E2V4) | 0.163 | 0.16 | -0.0853 | 0.291
ZNF687 C755 (UniProt Q8N1G0) | 0.521 | -0.275 | 0.0492 | -0.108
ZNF335 C982 (UniProt Q9H4Z2) | 0.113 | 0.0156 | 0.0519 | -0.0896
ZNF704 C55 | 0.0261 | -0.042 | -0.157 | -0.0572
ZNF592 C353 (UniProt Q92610) | -0.0591 | -0.0193 | -0.0912 | 0.0895
ZC3HC1 C5 (UniProt Q86WB0) | -0.215 | -0.192 | -0.162 | -0.0646
ZNF239 C112 (UniProt Q16600) | 0.26 | -0.0804 | -0.0552 | 0.301
ZNF217 C341 (UniProt O75362) | -0.0646 | -0.124 | -0.0204 | 0.326
ZNF638 C652 (UniProt Q14966) | -0.0871 | 0.366 | -0.123 | 0.47
ZNF326 C12 (UniProt Q5BKZ1) | -0.109 | 0.739 | 0.119 | 0.658
ZNF654 C927, A0A1B0GWA0 | -0.00617 | -0.00864 | -0.151 | 0.161
ZNF462 C2287 | 0.302 | -0.000908 | 0.288 | 0.307
ZNF148 C14 (UniProt Q9UQR1) | -0.142 | -0.0175 | -0.0283 | -0.0316
ZMYND8 C1062 (UniProt Q9ULU4) | 0.0887 | -0.283 | 0.13 | -0.251
ZNF114 C279 | -0.218 | -0.232 | -0.212 | -0.355
ZFAND1 C44 (UniProt Q8TCF1) | -0.199 | 0.217 | -0.369 | 0.178
ZNF100 C9 (UniProt Q8IYN0) | 0.231 | 0.346 | -0.00899 | 0.451
ZNF644 C62 (UniProt Q9H582) | -0.0603 | -0.135 | 0.017 | 0.147
ZNF330 C186 (UniProt Q9Y3S2) | 0.0364 | 0.147 | -0.102 | -0.027
ZNF106 C1221 (UniProt Q9H2Y7) | -0.109 | 0.233 | 0.496 | -0.137
ZNF195 C207 | 0.0171 | -0.1 | -0.166 | 0.00903
ZMYM4 C715 (UniProt Q5VZL5) | -0.0694 | -0.0501 | -0.158 | -0.13
